Among the data in PubChem BioAssay AID2685 (National Center for Advancing Translational Sciences (NCATS), 2010) are cell number change and AC50 values, retold here.

The nature of the experiment: qHTS Assay for Lipid Storage Modulators in Drosophila S3 Cells.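 For cell number change: cells counted by Cell Tracker Red CMTPX staining in the red channel.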 The settings on record: BODIPY lipid droplet fluorescence, 18-24 h; for cell number change: measured here: cell count max response, cells fed with added oleic acid. In outline: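 Drosophila S3 cells loaded with oleic acid (400 uM, as added) and compounds at several concentrations; lipid droplets imaged by 488-nm laser-scanning cytometry, 500–530 nm intensity and object ratio to cell channel. Percent activity normalized to 20 uM Triacsin C.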

Where [1] appears, read: measured here: lipid fluorescence (Fed channel) AC50, cells fed with added oleic acid.
Setting [2] is: measured here: cell number channel AC50, cells fed with added oleic acid.

This is one part of the list. These are further read-outs of the screen, such as a control signal, another cell line or another target. No call is given for them. Compounds called inactive in the main read-out are mostly missing here. Potencies come from curve fits of mixed quality, noted in brackets.

Take `O=C(Nc1ccc(O)cc1)c1c(O)c2c([nH]c1=O)CCCC2`: the cell number change came out at 63.4%. For the same molecule, the AC50 under setting [1] is 29.1 µM [rising, partial curve].

For the molecule `CC(=O)N1CCOc2ccc(S(=O)(=O)N3CCC(C(=O)Nc4ccc(C)c(C)c4)CC3)cc21`, the AC50 under setting [1] is 29.1 µM [rising, single point]. For the molecule `COCCCNC(=O)/C(C#N)=C/c1cccc(NC(=O)c2ccccc2Cl)c1`, the cell number change was -7.88%. Also, the AC50 under setting [1] is 4.11 µM [falling, partial curve]. Turning to `O=C(O)c1ccc(NS(=O)(=O)c2cccc(C(=O)Nc3ccccc3[N+](=O)[O-])c2)cc1`, the cell number change worked out at 2.78%. Further, the AC50 under setting [1] is 29.1 µM [falling, single point]. For the molecule `CC1=CC=CC2=NC(=O)CC(C)(C(=O)N(CC(=O)NC3CCCC3)Cc3ccc(Cl)cc3)N12` (stereo not given), the cell number change is 1.28%. For the same molecule, under setting [2], the AC50 was 0.164 µM [falling, full curve, poor fit]. On to `CCOC(=O)N1CCN(C(=O)CN2C(=O)CC(C)(C)S(=O)(=O)c3ccccc32)CC1`, for which the cell number change is -42.6%. Also, the AC50 under setting [2] is 0.146 µM [falling, full curve, poor fit]. Moreover, the AC50 under setting [1] is 3.66 µM [falling, full curve].

For the molecule `Cc1sc(NC(=O)CN(Cc2ccccc2)C(=O)C(C)C)c(C(N)=O)c1C`, the cell number change came to 21.3%. For the same molecule, the AC50 under setting [2] was 0.731 µM [falling, single point]. Moreover, the AC50 under setting [1] is 0.58 µM [falling, single point]. Regarding `CCOc1ccc(NC(=O)C(=O)N/N=C\c2ccc(CNS(=O)(=O)c3ccccc3)o2)cc1`, the AC50 under setting [1] is 29.1 µM [falling, single point]. `O=c1cc(CN2CCCCC2)nc(C2CC2)[nH]1`: the cell number change turned out to be 153%. For `COc1ccc(C(CNC(=O)c2ccc(OCC3CCCO3)cc2)N2CCOCC2)cc1` (stereo not given), the AC50 under setting [2] was 1.84 µM [rising, partial curve]. As to `CCOC(=O)c1cc(NC(=O)NC2CCCCC2)c(C)nc1C`, the cell number change is -18.1%. Further, the AC50 under setting [1] is 6.51 µM [rising, single point]. With `CCOc1ccc2[nH]c(=O)c(CN(CCN3CCOCC3)Cc3nnnn3C(C)(C)CC)cc2c1`, the cell number change was 9.67%. In addition, under setting [1], the AC50 was 29.1 µM [rising, single point].

As for `COc1ccc(NC(=O)CCOc2ccc(C)cc2)cc1S(=O)(=O)N1CCCCC1`, the cell number change is -10%. The AC50 under setting [1] was 1.64 µM [falling, partial curve, poor fit]. On to `NS(=O)(=O)c1ccc(CCNC(=O)c2cccc(S(=O)(=O)N3CCCC3)c2)cc1`, for which the cell number change was -4.28%. Besides, the AC50 under setting [1] is 29.1 µM [falling, single point]. On to `Cc1cccc(C)c1OCCNC(=O)CCC(=O)c1ccccc1`, for which the cell number change is -1.61%. Also, the AC50 under setting [1] is 2.06 µM [falling, single point]. Turning to `CCc1cccc(C)c1NC(=O)COC(=O)c1c2c(nc3ccccc13)/C(=C\c1cccs1)CCC2`, the cell number change was -8.31%. Moreover, under setting [1], the AC50 was 20.6 µM [falling, single point].
